Test results as given in PMC5290737, “Surface mediated cooperative interactions of drugs enhance mechanical forces for antibiotic action” (Scientific Reports, 2017).

Experiments:
[1] = system: vancomycin-resistant receptor (VRR); test: Cantilever surface stress assay, antibiotic binding to surface-bound VRR; conditions: equation (2)
Excerpt: To probe different pathways of signal-transduction central to the efficacy of recognition mechanisms and therapeutic agents, we used cantilever force-based technology. Because of its nanometre strain sensitivity, this technology can directly measure the smallest changes in mechanical strain caused by specific antibiotic binding. The principles of force transduction and measurements are well established[18][19][20] and many studies focused on cantilever sensors have been published. Unlike conventional methods such as 1H–NMR spectroscopy, enzyme-linked immunosorbent assays (ELISA)[29] or surface plasmon resonance (SPR)[30] which measure optical signatures of chemical binding, cantilever technology has the capacity to resolve forces at the level of individual hydrogen bonds, making it uniquely suited to provide important insight into force transduction mechanisms, such as cell wall strain in response to antibiotic binding. Moreover, in contrast to direct current or low-frequency signals, which cannot probe beyond electrical double layers formed by screening salts, mechanical signaling is sensitive to ligands even when they are located at distance of ~1 nm or more from the sensor surface (Fig. 1d). Measurements were performed using cantilevers functionalized with self-assembled monolayers (SAM) of VSR, VRR or reference polyethylene glycol (PEG) (see methods & materials, Supplementary Information). The specificity of mechanical signaling was achieved by performing measurements in differential mode, where the bending response of the reference PEG-coated cantilevers, (known to reduce nonspecific drug adsorption[8][14][34]) was subtracted from VSR- and VRR-coated cantilever signals (see cantilever measurement procedure, method section). […]
(§1) Here, Ksurf is raised to the power n to ensure that it maintains the dimension of concentration as n varies. […] The calculated Ksurf for Ori binding to VSR is 40 ± 10 nM, which is 25 times stronger than for Van where Ksurf is 1.0 ± 0.3 μM. […]

[2] = system: vancomycin-susceptible receptor (VSR); test: Cantilever surface stress assay, antibiotic binding to surface-bound VSR; conditions: equation (2)
Excerpt: To probe different pathways of signal-transduction central to the efficacy of recognition mechanisms and therapeutic agents, we used cantilever force-based technology. Because of its nanometre strain sensitivity, this technology can directly measure the smallest changes in mechanical strain caused by specific antibiotic binding. The principles of force transduction and measurements are well established[18][19][20] and many studies focused on cantilever sensors have been published. Unlike conventional methods such as 1H–NMR spectroscopy, enzyme-linked immunosorbent assays (ELISA)[29] or surface plasmon resonance (SPR)[30] which measure optical signatures of chemical binding, cantilever technology has the capacity to resolve forces at the level of individual hydrogen bonds, making it uniquely suited to provide important insight into force transduction mechanisms, such as cell wall strain in response to antibiotic binding. […]
as §1

Row | Compound | Hill coeff. (n) [1] | Hill coeff. (n) [2]
1 | ristomycin | 0.7 ± 0.2 | 
2 | CN[C@H](CC(C)C)C(=O)N[C@H]1C(=O)N[C@@H](CC(N)=O)C(=O)N[C@H]2C(=O)N[C@H]3C(=O)N[C@H](C(=O)N[C@H](C(=O)O)c4cc(O)cc(O)c4-c4cc3ccc4O)[C@H](O[C@H]3C[C@](C)(N)[C@@H](O)[C@H](C)O3)c3ccc(c(Cl)c3)Oc3cc2cc(c3O[C@@H]2O[C@H](CO)[C@@H](O)[C@H](O)[C@H]2O[C@H]2C[C@](C)(NCc3ccc(-c4ccc(Cl)cc4)cc3)[C@@H](O)[C@H](C)O2)Oc2ccc(cc2Cl)[C@H]1O [Ori, oritavancin] | 2.7 ± 0.6 | 1.8 ± 0.4
3 | CN[C@H](CC(C)C)C(=O)N[C@H]1C(=O)N[C@@H](CC(N)=O)C(=O)N[C@H]2C(=O)N[C@H]3C(=O)N[C@H](C(=O)N[C@H](C(=O)O)c4cc(O)cc(O)c4-c4cc3ccc4O)[C@H](O)c3ccc(c(Cl)c3)Oc3cc2cc(c3O[C@@H]2O[C@H](CO)[C@@H](O)[C@H](O)[C@H]2O[C@H]2C[C@](C)(N)[C@H](O)[C@H](C)O2)Oc2ccc(cc2Cl)[C@H]1O [Van, vancomycin] | 1.2 ± 0.2 | 1.0 ± 0.2
